Data reported in PMC11673777.
These are yes or no findings as the source states them, for the method shown. In cells and extracts the contact can be indirect. Some results given as binding are weak or reduced against the parent protein; the word gives no strength. Tags and fused reporters may be left off the sequences shown.

The chains behind the UniProt entries cited, without tags or fusion partners.
UniProt O95365: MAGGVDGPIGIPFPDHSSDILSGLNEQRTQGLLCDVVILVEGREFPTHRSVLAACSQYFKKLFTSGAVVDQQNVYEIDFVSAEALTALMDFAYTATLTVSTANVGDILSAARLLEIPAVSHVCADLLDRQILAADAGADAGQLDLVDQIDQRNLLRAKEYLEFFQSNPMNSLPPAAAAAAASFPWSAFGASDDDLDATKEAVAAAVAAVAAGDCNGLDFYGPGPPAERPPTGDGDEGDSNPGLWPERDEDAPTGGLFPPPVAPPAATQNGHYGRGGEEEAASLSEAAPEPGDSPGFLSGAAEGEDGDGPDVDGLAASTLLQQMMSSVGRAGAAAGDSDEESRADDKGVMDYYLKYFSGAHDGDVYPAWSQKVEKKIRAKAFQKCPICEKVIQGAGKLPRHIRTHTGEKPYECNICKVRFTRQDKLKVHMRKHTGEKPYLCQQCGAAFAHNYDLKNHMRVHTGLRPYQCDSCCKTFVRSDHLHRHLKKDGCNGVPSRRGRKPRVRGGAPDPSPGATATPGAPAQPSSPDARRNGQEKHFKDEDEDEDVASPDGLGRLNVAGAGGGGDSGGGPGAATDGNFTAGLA

Target: T1, V5-tagged human transglutaminase 2 (TG2) (human) (UniProt P21980)
T1 sequence: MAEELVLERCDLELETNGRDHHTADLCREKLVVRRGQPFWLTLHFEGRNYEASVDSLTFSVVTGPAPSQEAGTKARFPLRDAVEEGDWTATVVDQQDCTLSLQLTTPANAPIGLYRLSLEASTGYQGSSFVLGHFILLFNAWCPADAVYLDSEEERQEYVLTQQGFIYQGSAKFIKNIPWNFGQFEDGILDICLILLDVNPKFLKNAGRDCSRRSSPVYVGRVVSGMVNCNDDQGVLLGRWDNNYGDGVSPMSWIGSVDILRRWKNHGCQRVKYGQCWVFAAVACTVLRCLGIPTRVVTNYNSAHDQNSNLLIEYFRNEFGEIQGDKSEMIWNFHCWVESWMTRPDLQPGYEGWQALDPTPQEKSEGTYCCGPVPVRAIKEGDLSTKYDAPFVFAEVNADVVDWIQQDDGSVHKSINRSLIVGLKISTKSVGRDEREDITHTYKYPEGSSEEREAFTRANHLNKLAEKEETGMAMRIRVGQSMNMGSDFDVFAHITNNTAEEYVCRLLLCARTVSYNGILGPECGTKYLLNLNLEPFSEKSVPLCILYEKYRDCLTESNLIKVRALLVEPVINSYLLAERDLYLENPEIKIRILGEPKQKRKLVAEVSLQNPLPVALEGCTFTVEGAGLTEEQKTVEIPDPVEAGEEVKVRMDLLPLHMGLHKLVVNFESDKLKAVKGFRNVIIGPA
Assay: co-IP; HEK 293TN co-transfected with V5-TG2 and FLAG-Zbtb7a, treated with 10 µM VA4 or DMSO vehicle for 48 h; 300 µg lysate precipitated with rabbit anti-V5, protein A/G magnetic agarose beads, 4 °C; blot for FLAG and V5; lysis buffer 150 mM NaCl, 50 mM Tris-HCl, 1 mM EDTA, 1 mM EGTA, 0.5% NP-40 in PBS

binding: binds
Substance: FLAG-tagged Zbtb7a (from UniProt O95365 1-584)
